Test results published in paper PMC9176062, “Phase Ib study of combinations of avadomide (CC‐122), CC‐223, CC‐292, and rituximab in patients with relapsed/refractory diffuse large B‐cell lymphoma” (EJHaem, 2022).

Test system: patients with R/R DLBCL
Assay: Treatment duration, modification, and exposure
Assay type: in vivo
Experimental: CC‐122 hydrochloride, referred to here as CC‐122, as an active pharmaceutical ingredient in capsule (AIC) formulation, was administered orally once daily (QD). An alternate intermittent schedule of CC‐122 QD for five of every seven consecutive days (5/7), which improved tolerability and reduced the frequency and severity of neutropenia in a study of CC‐122 monotherapy in DLBCL, was also explored. CC‐292 was administered orally twice daily (BID) and CC‐223 was administered orally QD. Rituximab was administered on day 8 of cycle 1, day 1 of cycles 2–6, and day 1 of every third cycle thereafter. Patients in arm A received CC‐122 and CC‐223 with or without rituximab (starting at CC‐122 2 mg QD and CC‐223 20 mg QD), patients in arm B received CC‐122 plus CC‐292 with or without rituximab (starting at CC‐122 2 mg QD and CC‐292 500 mg BID), patients in arm C were treated with CC‐223 and CC‐292 (starting at CC‐223 20 mg QD and CC‐292 500 mg BID), and those in arm D received CC‐122 plus rituximab (starting at CC‐122 2 mg QD). In arm D, a CC‐122 3 mg formulated capsule was introduced with the same strength as CC‐122 3 mg AIC. Each dose level was cleared before the next was started. If unacceptable toxicity occurred at the initial dose level, dose reductions for CC‐122 (1.5 mg QD and 1 mg QD) and CC‐223 (15 mg QD) were allowed; no starting dose reductions for CC‐292 were planned. For arm A, the Safety Review Committee (SRC) determined which of the two drugs in the doublet to reduce. For arms B and D, the CC‐122 dose was reduced and for arm C, the CC‐223 dose was reduced. Assignment of patients to study arms was at the discretion of the investigator and based on slot availability per the study design.
Patients who experienced dose‐limiting toxicity (DLT) after receiving ≥1 dose of study treatment or those who received ≥80% of planned doses of CC‐122, CC‐223, CC‐292, and rituximab during cycle 1 without experiencing a DLT were considered DLT‐evaluable. If zero out of ≥3 or ≤1 out of six evaluable patients in a cohort experienced a DLT during cycle 1 in parallel dose cohorts, then dose escalation could occur. DLTs are defined in the Supplementary Materials; individual investigators performed response assessments and determined DLTs. The NTD was defined as the dose level at which ≥2 of six evaluable patients in a cohort experienced a DLT during cycle 1. […] During cycle 1, any adverse event (AE) that led to dose reduction was considered a DLT. Patients could resume CC‐122 at a reduced dose only if they recovered to grade ≤1 within 14 days of dose interruption; two dose reductions were allowed before the patient was withdrawn from the study. Dose reductions were permitted for CC‐122, CC‐223, and CC‐292; no dose reductions were allowed for rituximab, but treatment could be discontinued at the discretion of the investigator. […] For arms A, B, and D, CC‐122 dosing was modified to the intermittent 5/7‐day schedule based on SRC review and escalated until the MTD/RP2D was established. Treatment was given until disease progression, unacceptable toxicity, or patient/physician decision to withdraw consent.
^aTreatment duration defined as date of last derived dose – date of first dose + 1.
^bDefined as the ratio of actual dose received to planned dose over the treatment period.

[1] = Overall (all arms with the drug)
[2] = Overall (all arms with the drug), listed as Avadomide
[3] = Overall (all arms with the drug), listed as CC-223
[4] = Overall (all arms with the drug), listed as CC-292

Structure (SMILES) | Median duration of the drug (range) (Arm A (Avadomide + CC-223 ± R)) | Median no. of cycles (range) (Arm A (Avadomide + CC-223 ± R)) | Median relative dose intensity (range) (Arm A (Avadomide + CC-223 ± R)) | Median duration of the drug (range) (Arm B (Avadomide + CC-292 ± R)) | Median no. of cycles (range) (Arm B (Avadomide + CC-292 ± R)) | Median relative dose intensity (range) (Arm B (Avadomide + CC-292 ± R)) | Median duration of the drug (range) [1] | Median no. of cycles (range) [1] | Median relative dose intensity (range) [1] | Median duration of the drug (range) (Arm C (CC-292 + CC-223)) | Median no. of cycles (range) (Arm C (CC-292 + CC-223)) | Median relative dose intensity (range) (Arm C (CC-292 + CC-223)) | other results
Cc1nc2cccc(N)c2c(=O)n1C1CCC(=O)NC1=O (stereo not drawn) [CC‐122, Avadomide] | 72.0 (12-941) days | 2 (0-33) | 1.0 (0.7-1.0) | 56.0 (10-765) days | 2 (0-24) | 1.0 (0.6-1.0) | 56 days | 2 (0-33) | 1.0 |  |  |  | Median duration of the drug (range) (Arm D (Avadomide + R)): 47.5 (7-605) days; Median no. of cycles (range) (Arm D (Avadomide + R)): 1 (0-21); Median relative dose intensity (range) (Arm D (Avadomide + R)): 1.0 (0.5-1.0); Median duration of the drug (range) [2]: 56.0 (7-941) days; Median relative dose intensity (range) [2]: 1.0 (0.5-1.0)
CO[C@H]1CC[C@H](N2C(=O)CNc3ncc(-c4ccc(C(C)(C)O)nc4)nc32)CC1 [CC‐223] | 68.0 (12-937) days | 2 (0-33) | 1.0 (0.7-1.0) |  |  |  | 56 days | 2 (0-33) | 1.0 | 35.5 (7-112) days | 1 (0-3) | 1.0 (0.6-1.0) | Median duration of the drug (range) [3]: 56.0 (7-937) days; Median relative dose intensity (range) [3]: 1.0 (0.6-1.0)
C=CC(=O)Nc1cccc(Nc2nc(Nc3ccc(OCCOC)cc3)ncc2F)c1 [CC‐292] |  |  |  | 56.0 (12-542) days | 2 (0-18) | 1.0 (0.6-1.0) | 56 days | 2 (0-18) | 1.0 | 35.5 (7-233) days | 1 (0-8) | 1.0 (0.6-1.0) | Median duration of the drug (range) [4]: 56.0 (7-542) days; Median relative dose intensity (range) [4]: 1.0 (0.6-1.0)
